# At least one structure is not confirmed: it was looked up by name or label, or the drawing left a doubt.
# Tested on: CsUGTC30
# Test: Specificity of CsUGTC30 for sugar acceptors (relative activity of transglucosylation)
# Assay type: biochemical, Camellia sinensis
# Conditions: UDP-glucose as donor; 30 minutes at 30° C.; activity on geraniol is set to 100% (FIG. 8)
# Description: Standard enzyme reaction conditions are as follows.
# Next, to clarify the substrate specificity of CsUGTC30, geraniol, linalool, eugenol, benzyl alcohol, 2-phenylethanol, quercetin and cyanidin were each used as a substrate to determine the relative activity of transglucosylation with the above enzyme and under the above enzyme reaction conditions.
compound,measurement,value
Oc1cc(O)c2cc(O)c(-c3ccc(O)c(O)c3)[o+]c2c1 [cyanidin],relative transglucosylation activity of CsUGTC30 on the substrate (sugar acceptor),no transglycosylation activity
